This assay addresses T1, cytosolic domain of human TOM70 (amino acids 111-608), wild type (human) (UniProt O94826).
T1 sequence: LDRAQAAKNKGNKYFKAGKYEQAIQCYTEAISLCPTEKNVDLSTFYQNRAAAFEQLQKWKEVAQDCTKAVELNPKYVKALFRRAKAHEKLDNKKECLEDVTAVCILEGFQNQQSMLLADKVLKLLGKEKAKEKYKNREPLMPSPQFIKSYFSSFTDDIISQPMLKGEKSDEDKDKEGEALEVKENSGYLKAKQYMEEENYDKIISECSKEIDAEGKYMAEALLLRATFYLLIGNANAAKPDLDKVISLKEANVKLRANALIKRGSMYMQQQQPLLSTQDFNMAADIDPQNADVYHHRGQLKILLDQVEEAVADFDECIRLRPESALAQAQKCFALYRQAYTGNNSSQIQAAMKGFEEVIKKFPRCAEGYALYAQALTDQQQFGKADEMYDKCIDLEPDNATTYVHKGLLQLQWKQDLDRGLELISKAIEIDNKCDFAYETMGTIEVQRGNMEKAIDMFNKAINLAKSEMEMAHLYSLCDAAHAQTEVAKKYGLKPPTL
Kind of assay: pull-down; […]; 7% ([…]; 40 min, 30 °C; […], pH 7.2; […]; only the target purified.

Protein sequences, listed by entry. Tags and fused reporters are not part of them.
UniProt P08238: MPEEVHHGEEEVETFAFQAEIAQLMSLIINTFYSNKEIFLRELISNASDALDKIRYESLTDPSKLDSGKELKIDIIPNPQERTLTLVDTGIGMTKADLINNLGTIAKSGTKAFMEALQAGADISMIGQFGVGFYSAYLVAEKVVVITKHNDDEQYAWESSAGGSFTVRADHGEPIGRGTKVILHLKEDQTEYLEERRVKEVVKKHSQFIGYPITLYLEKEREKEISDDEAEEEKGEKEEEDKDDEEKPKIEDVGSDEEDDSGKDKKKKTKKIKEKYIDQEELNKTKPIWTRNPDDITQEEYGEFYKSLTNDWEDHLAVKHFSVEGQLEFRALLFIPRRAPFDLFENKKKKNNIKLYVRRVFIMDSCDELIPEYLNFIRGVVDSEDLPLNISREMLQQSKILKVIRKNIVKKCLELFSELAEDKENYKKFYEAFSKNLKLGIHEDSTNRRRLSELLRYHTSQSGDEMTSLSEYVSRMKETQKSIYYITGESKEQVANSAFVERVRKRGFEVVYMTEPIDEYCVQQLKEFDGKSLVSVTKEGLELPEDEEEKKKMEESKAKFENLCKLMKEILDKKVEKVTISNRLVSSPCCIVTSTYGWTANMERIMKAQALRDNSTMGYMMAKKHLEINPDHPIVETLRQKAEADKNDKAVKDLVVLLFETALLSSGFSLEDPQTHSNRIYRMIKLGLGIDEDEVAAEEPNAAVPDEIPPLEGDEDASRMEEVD

Results are given in words; binding and its absence hold for the method and conditions named. Binding seen in cells or lysates may run through a third protein. Some binding calls cover weakened binding; strength is not graded here.

Turning to “human Hsp90 (Hsp90-beta), full length, radiolabeled, synthesized in reticulocyte lysate (from UniProt P08238 1-724)”, the binding result is reported as “binds”.

(Values after PMC8430508.)
